# Data as given in US20220241322A1, “WOUND-TREATING GAS COMPOSITION, AND WOUND-TREATING APPARATUS” (SUMITOMO SEIKA CHEMICALS CO., LTD., priority 2019, published 2022).
# At least one compound was matched to its structure with a doubt left.
# Key:
# mice = settings: H2S atmosphere at 80 ppm, "stasis conditions"; cited from earlier work
# [1] = system: skin excision in diabetic mouse; assay: skin excision model in diabetic mouse, exposure to/inhalation of hydrogen sulfide-containing gas; format: in vivo, mouse (C57BL/6J HamSlc-ob/ob); settings: diabetic ob/ob mouse, Example 8 (as Example 6, 10 ppm hydrogen sulfide), vs air only (Comp. Ex. 4)
# skin excision model = assay: skin excision model, exposure to/inhalation of hydrogen sulfide-containing gas; format: in vivo, mouse (C57BL/6); settings: hydrogen sulfide 3, 10, 1 ppm (Ex. 5-7), Day 3 to Day 6, vs air only (Comp. Ex. 3)
# bedsore model = bedsore model (back skin pressed between two magnets), exposure to/inhalation of hydrogen sulfide-containing gas; format: in vivo, mouse (C57BL/6); settings: for bedsore state (photographs): 4 hours per day
smiles,measurement,setting,value
S [hydrogen sulfide],viability of mice,mice,improved
same,skin excision area,[1]; after completion of two cycles (Day 3),decreases noticeably
same,skin excision state (photographs),[1]; from after completion of two cycles (Day 3),noticeably improved
same,skin excision state (photographs),skin excision model; cycles of 4-hours feeding/20-hours interruption,slightly improved
same,skin excision area,skin excision model,decreases noticeably
same,bedsore state (photographs),"bedsore model; 40 ppm hydrogen sulfide (Comparative Example 2), vs air only (FIG. 4(a))",no difference
same,bedsore area,"bedsore model; FIGS. 5(c) to 5(e) (Ex. 2-4: 10, 3, 0.5 ppm hydrogen sulfide), compared with feeding of air alone",noticeably smaller
same,bedsore state (photographs),"bedsore model; hydrogen sulfide 10 ppm or lower (Examples 2 to 4: 10, 3, 0.5 ppm), at the eighth day, vs air only",improvements in the bedsore state
same,bedsore state (photographs),"bedsore model; hydrogen sulfide 20 ppm or lower (Ex. 1-4: 20, 10, 3, 0.5 ppm), on the tenth day at the latest, vs air only (Comp. Ex. 1)",noticeably improved
